# Test results from the supplement of paper PMC4635364.
# Counter-ions that a name gives are not always drawn. This is one part of the list. Repeats in this data set agree poorly, so a single value says little.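 Cells: ReNCell VM human fetal ventral-midbrain neural progenitors, differentiated mitogen-free. Blinded raters compared doublecortin-stained (early neurons) or tyrosine hydroxylase-stained (dopaminergic neurons) images with untreated wells, where 0 means no change. After repeats and both raters were averaged, compounds scoring 2 or above became hits for retesting.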
# Tests used:
# ReNCell VM [1] = assay: neuronal differentiation score (DCX+ cell fraction vs untreated, manual image score) (score (-3 to 3)); higher = more neuronal differentiation; conditions: 2 uM, 2 weeks
# ReNCell VM [2] = assay: dopaminergic neuron differentiation score (TH+ cell fraction vs untreated, manual image score) (score (0 to 3)); higher = more TH+ dopaminergic neuron differentiation; conditions: 2 uM, 4 weeks, BDNF 10 ng/ml + GDNF 10 ng/ml
smiles,measurement,setting,value
CC(=O)OCC(=O)NCCCOc1cccc(CN2CCCCC2)c1,neuronal differentiation score,ReNCell VM [1]; library: Spectrum,inactive: 1
same,dopaminergic neuron differentiation score,ReNCell VM [2]; library: Spectrum,inactive: 0
CCN1CCN(C(=O)N[C@@H](C(=O)N[C@@H]2C(=O)N3C(C(=O)O)=C(CSc4nnnn4C)CS[C@H]23)c2ccc(O)cc2)C(=O)C1=O [Cefoperazone dihydrate],neuronal differentiation score,ReNCell VM [1]; library: Prestwick,inactive: 0
same,dopaminergic neuron differentiation score,ReNCell VM [2]; library: Prestwick,inactive: 0
Cc1c(C)c2c(c(C)c1O)CCC(C)(C(=O)O)O2 (configuration not stated) [Trolox],neuronal differentiation score,ReNCell VM [1]; library: Prestwick,inactive: 0
same,dopaminergic neuron differentiation score,ReNCell VM [2]; library: Prestwick,inactive: 0
O=C1CCc2ccc(OCCCCN3CCN(c4cccc(Cl)c4Cl)CC3)cc2N1 [Aripiprazole],neuronal differentiation score,ReNCell VM [1]; library: Prestwick,inactive: 0
same,dopaminergic neuron differentiation score,ReNCell VM [2]; library: Prestwick,inactive: 0
CCCCc1nc(Cl)c(CO)n1Cc1ccc(-c2ccccc2-c2nnn[nH]2)cc1,neuronal differentiation score,ReNCell VM [1]; library: Spectrum,inactive: 0
same,dopaminergic neuron differentiation score,ReNCell VM [2]; library: Spectrum,inactive: 0
C#CCN[C@@H]1CCc2ccccc21,neuronal differentiation score,ReNCell VM [1]; library: Spectrum,inactive: 0
same,dopaminergic neuron differentiation score,ReNCell VM [2]; library: Spectrum,inactive: 0
C=C(C)[C@@H]1CC=C(CO)CC1,neuronal differentiation score,ReNCell VM [1]; library: Spectrum,inactive: 0
same,dopaminergic neuron differentiation score,ReNCell VM [2]; library: Spectrum,inactive: 0
CCOC(=O)C(C)(C)Oc1ccc(Cl)cc1,neuronal differentiation score,ReNCell VM [1]; library: Spectrum,inactive: 0
same,dopaminergic neuron differentiation score,ReNCell VM [2]; library: Spectrum,inactive: 0
NCCCCCC(=O)O,neuronal differentiation score,ReNCell VM [1]; library: Spectrum,inactive: 0
same,dopaminergic neuron differentiation score,ReNCell VM [2]; library: Spectrum,inactive: 0
Oc1ccc2ccccc2c1 [beta-NAPHTHOL],neuronal differentiation score,ReNCell VM [1]; library: Spectrum,inactive: 0
same,dopaminergic neuron differentiation score,ReNCell VM [2]; library: Spectrum,inactive: 0
OCc1cccnc1,neuronal differentiation score,ReNCell VM [1]; library: Spectrum,inactive: 0
same,dopaminergic neuron differentiation score,ReNCell VM [2]; library: Spectrum,inactive: 0
CC(=O)NO,neuronal differentiation score,ReNCell VM [1]; library: Spectrum,inactive: 0
same,dopaminergic neuron differentiation score,ReNCell VM [2]; library: Spectrum,inactive: 0
Cc1cc(N)c2ccccc2[n+]1CCCCCCCCCC[n+]1c(C)cc(N)c2ccccc21,neuronal differentiation score,ReNCell VM [1]; library: Spectrum,inactive: 0
same,dopaminergic neuron differentiation score,ReNCell VM [2]; library: Spectrum,inactive: 0
COc1ccc(/C=C/C(=O)O)cc1OC,neuronal differentiation score,ReNCell VM [1]; library: Spectrum,inactive: 0
same,dopaminergic neuron differentiation score,ReNCell VM [2]; library: Spectrum,inactive: 0
Cc1cc(O)cc(O)c1C(=O)O,neuronal differentiation score,ReNCell VM [1]; library: Spectrum,inactive: 0
same,dopaminergic neuron differentiation score,ReNCell VM [2]; library: Spectrum,inactive: 0
NC(=O)c1cc[n+](CC2=C(C(=O)O)N3C(=O)[C@@H](NC(=O)C(c4ccccc4)S(=O)(=O)[O-])[C@H]3SC2)cc1 (some centres not stated) [Cefsulodin sodium salt hydrate],neuronal differentiation score,ReNCell VM [1]; library: LOPAC,inactive: 0
same,dopaminergic neuron differentiation score,ReNCell VM [2]; library: LOPAC,inactive: 1
N[C@@H]1CCN(O)C1=O,neuronal differentiation score,ReNCell VM [1]; library: Tocriscreen,inactive: 0
same,dopaminergic neuron differentiation score,ReNCell VM [2]; library: Tocriscreen,inactive: 0
C[C@@H]1[C@H](O)[C@@H](C)/C=C/C=C/C=C/C=C/C=C/C=C/C=C/[C@H](O[C@@H]2O[C@H](C)[C@@H](O)[C@H](N)[C@@H]2O)C[C@@H]2O[C@](O)(C[C@@H](O)C[C@@H](O)[C@H](O)CC[C@@H](O)C[C@@H](O)CC(=O)O[C@H]1C)C[C@H](O)[C@H]2C(=O)O [Amphotericin B],neuronal differentiation score,ReNCell VM [1]; library: Prestwick,inactive: 0
same,dopaminergic neuron differentiation score,ReNCell VM [2]; library: Prestwick,inactive: 0
CC(=O)Nc1cc2ccccc2oc1=O [3-Acetamidocoumarin],neuronal differentiation score,ReNCell VM [1]; library: Phytochemical,inactive: 0
same,dopaminergic neuron differentiation score,ReNCell VM [2]; library: Phytochemical,inactive: 0
CC(C)(C)CC(C)(C)c1ccc(O)c(Cc2ccc(Cl)cc2Cl)c1,neuronal differentiation score,ReNCell VM [1]; library: Spectrum,inactive: 0
same,dopaminergic neuron differentiation score,ReNCell VM [2]; library: Spectrum,inactive: 0
NC(=O)CCCCC1CCSS1 (configuration not stated),neuronal differentiation score,ReNCell VM [1]; library: Spectrum,inactive: 0
same,dopaminergic neuron differentiation score,ReNCell VM [2]; library: Spectrum,inactive: 1
CCOc1ccc(NC(=O)CC(C)O)cc1 (configuration not stated),neuronal differentiation score,ReNCell VM [1]; library: Spectrum,inactive: 0
same,dopaminergic neuron differentiation score,ReNCell VM [2]; library: Spectrum,inactive: 0
CC(=O)OCC1=C(C(=O)O)N2C(=O)[C@@H](NC(=O)CSc3ccncc3)[C@H]2SC1 [Cephapirin sodium],neuronal differentiation score,ReNCell VM [1]; library: LOPAC,inactive: 0
same,dopaminergic neuron differentiation score,ReNCell VM [2]; library: LOPAC,inactive: 0
CCCc1cc(=O)[nH]c(=S)[nH]1 [Propylthiouracil],neuronal differentiation score,ReNCell VM [1]; library: Prestwick,inactive: 0
same,dopaminergic neuron differentiation score,ReNCell VM [2]; library: Prestwick,inactive: 0
N=C(N=C(N)N)N1CCOCC1 [Moroxidine hydrochloride],neuronal differentiation score,ReNCell VM [1]; library: Prestwick,inactive: 0
same,dopaminergic neuron differentiation score,ReNCell VM [2]; library: Prestwick,inactive: 0
CC(N/C(=N\C#N)Nc1ccncc1)C(C)(C)C (configuration not stated),neuronal differentiation score,ReNCell VM [1]; library: Spectrum,inactive: 0
same,dopaminergic neuron differentiation score,ReNCell VM [2]; library: Spectrum,inactive: 0

# Two records drawn at random from the list so far:
smiles,measurement,setting,value
C=C(C)[C@@H]1CC=C(CO)CC1,dopaminergic neuron differentiation score,ReNCell VM [2]; library: Spectrum,inactive: 0
Cc1cc(O)cc(O)c1C(=O)O,dopaminergic neuron differentiation score,ReNCell VM [2]; library: Spectrum,inactive: 0
